Results are given in words; binding and its absence hold for the method and conditions named. Some entries that bind do so weakly or less than the wild type.
Tests used:
[1] = biological target: EWSR1-SNAP (Ewing Sarcoma breakpoint region 1/EWS RNA binding protein 1, SNAP-tagged) (UniProt Q01844); test: dynamic light scattering (DLS); derived count rate in sub-saturated solutions; 20 mM Tris.HCl pH 7.4, 100 mM KCl, 25 °C; self-association into clusters; both purified
[2] = biological target: EWSR1-SNAP (Ewing Sarcoma breakpoint region 1/EWS RNA binding protein 1, SNAP-tagged) (UniProt Q01844); test: dynamic light scattering (DLS); derived count rate and size distributions in sub-saturated solutions; 20 mM Tris.Glu pH 7.4, 100 mM KGlu (with residual KCl from the stock), 25 °C; self-association into clusters; both purified

Sequences of proteins named here, by UniProt entry; tags and fusion partners are left off.
UniProt Q01844: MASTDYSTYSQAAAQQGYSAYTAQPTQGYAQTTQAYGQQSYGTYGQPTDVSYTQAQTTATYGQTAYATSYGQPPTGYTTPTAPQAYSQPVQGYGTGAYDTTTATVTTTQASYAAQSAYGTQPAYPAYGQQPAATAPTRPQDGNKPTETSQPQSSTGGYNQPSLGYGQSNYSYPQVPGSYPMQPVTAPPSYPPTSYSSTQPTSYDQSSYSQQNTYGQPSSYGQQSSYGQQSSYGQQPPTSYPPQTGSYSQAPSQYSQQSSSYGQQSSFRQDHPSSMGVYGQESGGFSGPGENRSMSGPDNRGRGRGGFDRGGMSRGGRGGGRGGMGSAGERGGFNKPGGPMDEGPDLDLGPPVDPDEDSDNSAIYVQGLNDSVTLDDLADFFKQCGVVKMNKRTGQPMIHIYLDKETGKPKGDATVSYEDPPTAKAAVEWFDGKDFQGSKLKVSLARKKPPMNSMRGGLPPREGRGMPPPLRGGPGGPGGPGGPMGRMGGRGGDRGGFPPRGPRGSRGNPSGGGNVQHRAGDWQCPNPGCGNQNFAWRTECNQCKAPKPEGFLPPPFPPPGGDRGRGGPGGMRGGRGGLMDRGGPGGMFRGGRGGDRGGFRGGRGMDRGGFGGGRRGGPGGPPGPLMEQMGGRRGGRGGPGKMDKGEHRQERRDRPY

binding [1]: binds
binding [2]: binds
Substance: EWSR1-SNAP (Ewing Sarcoma breakpoint region 1/EWS RNA binding protein 1, SNAP-tagged) (from UniProt Q01844 1-656)
